About 100 (0.027%) of roughly 370,000 compounds were called active. The shares of active, inactive and inconclusive entries below differ from those in the screen. The call rests on the fitted dose curve; in most records, active means well fitted inhibition curve with a large enough effect in the polarisation, with a control signal flat; inconclusive means small, poorly fitted or top-dose-only effect, or effect the other way, or a change in a side signal; inactive means no such curve, though single readings can be large or run the other way; the % refers to the polarisation. A potency beside an inconclusive call is a rough fit, not a confirmed value. “Side channel” marks fits to a control or component signal instead of the main read-out.
Each compound was assayed against Transcriptional regulator ERG (Homo sapiens) (UniProt P11308) (assay: qHTS for Small Molecule Inhibitors of the ERG Ets/DNA interaction). Settings: fluorescence polarization, His-ERG Ets domain / labelled DNA; series mostly up to 76.9 µM.
Summary of the method: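 His-tagged ERG Ets domain (1 uM in the protein solution; 300mM KCl, 50mM Tris-HCl, 1mM EDTA, 1mM DTT, pH 7.5) received compound, then a probe mix of 5 nM fluorescein-DNA and 100nM Texas-615-DNA. Fluorescence polarization was read for both dyes.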
Potency means the concentration at half of the fitted maximal effect.

Chains of the proteins cited; added tags and fusions are not shown.
UniProt P11308, whole entry, looked up: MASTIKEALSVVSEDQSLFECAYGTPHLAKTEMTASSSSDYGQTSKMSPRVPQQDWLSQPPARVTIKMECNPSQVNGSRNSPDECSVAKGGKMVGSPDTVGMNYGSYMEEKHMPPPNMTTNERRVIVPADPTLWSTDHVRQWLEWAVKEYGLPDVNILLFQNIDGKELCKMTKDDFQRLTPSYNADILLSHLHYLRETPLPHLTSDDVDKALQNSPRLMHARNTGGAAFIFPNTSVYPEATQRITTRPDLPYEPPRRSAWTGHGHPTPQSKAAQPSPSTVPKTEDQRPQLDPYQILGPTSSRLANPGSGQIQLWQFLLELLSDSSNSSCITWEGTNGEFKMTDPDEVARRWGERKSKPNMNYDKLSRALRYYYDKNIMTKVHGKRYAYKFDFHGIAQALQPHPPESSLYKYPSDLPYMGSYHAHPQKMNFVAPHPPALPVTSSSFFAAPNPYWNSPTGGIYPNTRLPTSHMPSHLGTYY

Row | SMILES | Potency
1 | c1ccc(Cn2c(Nn3cnnc3)nc3ccccc32)cc1 | inactive
2 | Oc1ccccc1CN1CCCC(N2CCN(c3cccc(C(F)(F)F)c3)CC2)C1 (stereo unspecified) | inconclusive: 7.94 µM [inhibitor, single point]
3 | C=CCN1C(=O)C2(c3ccccc31)C1CCCC=C1C(C#N)=C(N)C2(C#N)C#N (stereo unspecified) | inconclusive: 35.5 µM [fluorescent, side channel, partial curve, poor fit]
4 | O=CN(/C=C1\Sc2ccccc2C1=O)Cc1ccccc1 | inconclusive: 25.1 µM [fluorescent, side channel, partial curve, poor fit]
5 | CCCN1C(=O)/C(=C/c2ccc(N3CCCC3)c(C)c2)NC1=S | inconclusive: 31.6 µM [fluorescent, side channel, single point]
6 | Cc1noc(C)c1C(=O)Nc1cccnc1 | inconclusive: 63.1 µM [inhibitor, single point]
7 | CCOc1ccc(NC(=O)CN(C)C(=O)c2ccccc2CCc2ccccc2)cc1OCC | inconclusive: 50.1 µM [inhibitor, single point]
8 | Cc1c(NS(=O)(=O)c2ccc(NCC3CCCO3)c([N+](=O)[O-])c2)c(=O)n(-c2ccccc2)n1C (stereo unspecified) | inconclusive: 56.2 µM [inhibitor, partial curve, poor fit]
9 | Cc1ccc(N=Nc2c(C)[nH]n(-c3ccccc3)c2=O)c(C)c1 | inactive
10 | Cc1cccc(NC(=S)NNC(=O)c2ccco2)c1 | inactive
11 | Nc1ccc(OC(=O)Nc2ccc(O)cc2)cc1 | inactive
12 | C1=C(CCNc2ncnc3c2cnn3-c2ccccc2)CCCC1 | inconclusive: 31.6 µM [quencher, side channel, single point]
13 | CC(=O)c1cccc(NC(=O)C(C)OC(=O)c2ccc3ncsc3c2)c1 (stereo unspecified) | inconclusive: 10 µM [inhibitor, partial curve, poor fit]
14 | CCC(c1nnnn1Cc1ccc(F)cc1)N1CCN(C)CC1 (stereo unspecified) | inconclusive: 11.2 µM [inhibitor, single point]
15 | COc1ccc(-c2nn(C)c3sc(C(=O)Nc4cccc(F)c4)cc23)cc1OC | inconclusive: 8.91 µM [quencher, side channel, partial curve, poor fit]
16 | COC(=O)[C@H]1C[C@@H]1[C@H](N)c1ccccc1 | inactive
17 | CCCc1cc(C(=O)Nc2ccccc2C(=O)OC)no1 | inconclusive: 17.8 µM [inhibitor, partial curve]
18 | CCOc1cc(CNc2ccc(O)cc2)ccc1OCc1ccc(Cl)cc1Cl | inconclusive: 28.2 µM [inhibitor, single point]
19 | Cc1ccc2[nH]c(-c3cccc(F)c3)cc(=O)c2c1 | inactive
20 | Clc1ccc(-c2csc(N/N=C/c3ccco3)n2)cc1 | inconclusive: 0.794 µM [inhibitor, full curve, poor fit]
21 | Cc1ccc(S(=O)(=O)CCC(=O)O)cc1C | inconclusive: 35.5 µM [fluorescent, side channel, partial curve, poor fit]
22 | Nc1nc(SCc2ccccc2)c2ncn(C3CCCCC3)c2n1 | inactive

Reprinted at random: two records from the list
Row | SMILES | Potency
16 | COC(=O)[C@H]1C[C@@H]1[C@H](N)c1ccccc1 | inactive
11 | Nc1ccc(OC(=O)Nc2ccc(O)cc2)cc1 | inactive

Further compounds:

Row | SMILES | Potency
23 | NNc1ccc(Cl)nn1 | inactive
24 | COc1cc(-c2ccc(Nc3ccccc3C(=O)O)c(OC)c2)ccc1Nc1ccccc1C(=O)O | inconclusive: 50.1 µM [inhibitor, single point]
25 | COc1ccc(OC)c(NC(=O)c2cccc(NC(=O)c3ccccc3)c2)c1 | inconclusive: 8.91 µM [inhibitor, single point]
26 | CCN(CC)S(=O)(=O)c1ccc(C)c(NC(=O)CN(C)C)c1 | inactive
27 | COc1cc(OC)cc(C(=O)OCC(=O)N2CCCC2)c1 | inconclusive: 31.6 µM [inhibitor, single point]
28 | O=C(c1ccc(Cl)cc1)C1CCCN(Cc2cccn2-c2ccccn2)C1 (stereo unspecified) | inactive
29 | O=C(O)CCN1C(=O)C2C3CC(C2C1=O)C1C(c2ccccc2)c2sc(=O)n(-c4ccccc4)c2SC31 (stereo unspecified) | inconclusive: 0.794 µM [quencher, side channel, partial curve, poor fit]
30 | COc1ccc2c(c1)c1nc3ccccc3nc1n2CC(=O)OC(C)C | inconclusive: 10 µM [fluorescent, side channel, single point]
31 | Cc1ccc(-c2noc(CCCC(=O)NCc3ccco3)n2)cc1 | inactive
32 | Cc1ccc(NC(=O)c2ccc3nc[nH]c3c2)cc1C | inconclusive: 11.2 µM [quencher, side channel, single point]
33 | Cc1ccc(C=Nc2cccnc2N)cc1 | inconclusive: 6.31 µM [inhibitor, single point]
34 | CCCc1c(-c2ccc(O)cc2)nn(-c2ccc(O)cc2)c1-c1ccc(O)cc1 | inconclusive: 2.51 µM [inhibitor, partial curve, poor fit]
35 | CC(=O)c1ccc(N(CC(=O)NC2CCS(=O)(=O)C2)S(=O)(=O)c2ccc(C)cc2)cc1 (stereo unspecified) | inconclusive: 3.98 µM [inhibitor, partial curve, poor fit]
36 | N#C/C(=C\c1cccc([N+](=O)[O-])c1)C(=O)NCc1ccc(Cl)cc1 | inactive
37 | Cn1c(SCc2ccc([N+](=O)[O-])cc2)nnc1-c1cccnc1 | inconclusive: 31.6 µM [inhibitor, single point]
38 | Cc1[nH]c2ccccc2c1/C=N/NC(N)=S | inactive
39 | Cc1ccc(C)c(N(CC(=O)NCc2ccco2)C(=O)CNS(=O)(=O)c2ccc(F)cc2)c1 | inconclusive: 7.94 µM [inhibitor, partial curve, poor fit]
40 | O=C(Nc1nc(-c2ccc(F)c(F)c2)cs1)c1cc([N+](=O)[O-])ccc1N1CCOCC1 | inconclusive: 8.91 µM [inhibitor, single point]
41 | CCN(CC)CCCNC(=O)c1cc(Nc2ccc(OC)cc2OC)nc2ccccc12 | inconclusive: 39.8 µM [inhibitor, single point]
42 | CC(=O)Nc1sc2c(c1-c1nc3ccccc3s1)CCN(C(C)C)C2 | inconclusive: 25.1 µM [inhibitor, partial curve, poor fit]
43 | CCn1ncc(Br)c1C(=O)Nc1cccc(C(C)=O)c1 | inconclusive: 5.62 µM [inhibitor, full curve, poor fit]
44 | Cc1nc2ccc(-c3nc4ccc(N)cc4[nH]3)cc2[nH]1 | inconclusive: 31.6 µM [quencher, partial curve, poor fit]

Row | SMILES | Potency
45 | COc1ccc(C(C)=O)cc1CSc1nc(NCc2ccccc2)c2ccccc2n1 | inactive
46 | O=c1/c(=C/c2ccco2)sc2nc(-c3ccccc3Br)nn12 | inactive
47 | COc1ccc(NC(=O)Cn2cnc3c(nc4n3CCCCC4)c2=O)cc1Cl | inconclusive: 50.1 µM [quencher, side channel, partial curve, poor fit]
48 | Cc1cccc(Cc2cnc(N3C(=N)SC(c4ccccc4)C3=O)s2)c1 (stereo unspecified) | inactive
49 | Cc1ccc(C2C(C#N)=C(N)SC(N)=C2C#N)c(C)c1 | inactive
50 | Cc1ccc(C(=O)Nc2nnc(COc3ccccc3)s2)cc1 | inconclusive: 11.2 µM [inhibitor, single point]
51 | Cc1ccccc1NS(=O)(=O)c1ccc2c(c1)NC(=O)CO2 | inactive
52 | O=C1/C(=C\c2ccc(O)c(O)c2)SC(=S)N1Cc1ccccc1 | inactive
53 | Cn1c(NCCN)nc2c1c(=O)n(Cc1ccccc1)c(=O)n2C | inconclusive: 6.31 µM [fluorescent, side channel, single point]
54 | CCCNC(=O)C1=C(C)C(=O)OC12CCC(C)CC2 (stereo unspecified) | inconclusive: 44.7 µM [inhibitor, single point]
55 | CCn1cc(C(=O)NCCCO)c(=O)c2cc(F)c(N3CCN(C)CC3)cc21 | inconclusive: 31.6 µM [inhibitor, single point]
56 | Cn1c(=O)c2c(-c3ccccc3)n3c(c2n(C)c1=O)C(c1cc(Cl)ccc1O)Nc1ccccc1-3 (stereo unspecified) | inactive
57 | Cc1cc2ccccc2n1CCNC(=O)Cc1cccc2ccccc12 | inconclusive: 50.1 µM [inhibitor, single point]
58 | Cc1ccc(NC(=O)CCCN2C(=O)/C(=C/C=C/c3ccccc3)SC2=S)cc1 | inconclusive: 3.16 µM [fluorescent, side channel, partial curve, poor fit]
59 | Cc1ccc(-c2nnc(SCC(=O)NCC3CCCO3)n2C)cc1 (stereo unspecified) | inactive
60 | O=C(OCC(O)CO)c1ccccc1Nc1ccnc2cc(Cl)ccc12 (stereo unspecified) | inconclusive: 7.08 µM [inhibitor, partial curve, poor fit]
61 | COC(=O)c1c(C(=O)OC)c(-c2ccc(OC)cc2)n2c1CS(=O)C2 (stereo unspecified) | inconclusive: 0.794 µM [inhibitor, partial curve, poor fit]
62 | CCCCCCCN=CC1=C(O)CC(c2ccccc2)CC1=O (stereo unspecified) | inconclusive: 35.5 µM [inhibitor, single point]
63 | CCn1c2ccccc2c2cc(NC(=O)COC(=O)c3cc(S(=O)(=O)N4CCCCC4)ccc3Cl)ccc21 | inconclusive: 35.5 µM [quencher, side channel, partial curve, poor fit]
64 | COCCCn1c(SCC(=O)Nc2sc3c(c2C#N)CCCC3)nnc1-c1ccncc1 | inconclusive: 8.91 µM [fluorescent, side channel, full curve, poor fit]
65 | N#C/C(=C/c1ccc(N2CCCCC2)o1)C(=O)NCCc1c[nH]c2ccccc12 | inconclusive: 56.2 µM [inhibitor, partial curve, poor fit]
66 | Cc1cc(C)c2c(N)c(C(=O)c3ccc(Cl)cc3)sc2n1 | inconclusive: 79.4 µM [inhibitor, single point]

Among those listed so far, these have bromine:
Row | SMILES | Potency
43 | CCn1ncc(Br)c1C(=O)Nc1cccc(C(C)=O)c1 | inconclusive: 5.62 µM [inhibitor, full curve, poor fit]
46 | O=c1/c(=C/c2ccco2)sc2nc(-c3ccccc3Br)nn12 | inactive
